# Taken from: PubChem BioAssay AID743454 (Peter MacCallum Cancer Centre, 2014)
# Assay: 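Search for knock-downs that restore vorinostat killing in resistant colon cancer cells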 (primary screen)
# Cells: human HCT116-VR colon cancer cells, selected for vorinostat resistance
# Reagents: siRNA pool against human genes, 40 nM siRNA pool
# Duration: vorinostat for 24 h, read-out about 72 h after transfection
# Conditions: vorinostat at 2.5 µM final
# Detection: 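Cell viability by CellTiter-Fluor and caspase 3/7 activity by luminescence, each scaled to mock wells per plate, duplicates averaged, then robust z-scored over all plates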
# Reading the numbers: viability robust z-score: higher = more viable cells than screen typical; caspase robust z-score: higher = more caspase 3/7 activity than screen typical
# Call rule: 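Hits are knock-downs in viability class RV1/RV2 or caspase class CA1/CA2, excluding ones that killed cells in the no-drug cell-count arm; hits then retested with single siRNAs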
# The deposit covers about 18,000 reagents; shown is a part drawn at random. Of all reagents, 450 (2.5%) got an active call. 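Single biological run; no consistent viability z cut-off exists, so the class columns, not z-scores, define the calls.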
gene knocked down,viability hit class,caspase hit class,viability robust z-score,caspase robust z-score,activity call
RPLP2,RV2 (reduced viability),no change,-3.13,0.09,active
PTPN1,no change,no change,1.31,-0.22,inactive
EFCAB12,no change,no change,0.21,-0.6,inactive
RER1,no change,no change,-0.14,-0.16,inactive
FILIP1L,no change,no change,1.99,0.64,inactive
RCAN2,no change,no change,-0.01,1.66,inactive
DEFB132,no change,no change,-0.94,-1.69,inactive
DNAH2,no change,no change,1.04,-0.48,inactive
PPP1R27,no change,no change,0.66,-0.35,inactive
TIMMDC1,no change,no change,-0.49,0.06,inactive
DKK4,no change,no change,1.08,-1.19,inactive
KRTAP19-4,no change,no change,-0.28,0.12,inactive
STK24,no change,no change,0.26,-0.59,inactive
TRIM28,no change,no change,-1.68,4.56,inactive
CRAMP1,no change,no change,0.86,-0.56,inactive
CADM3,no change,no change,0.78,2.08,inactive
RIPK1,no change,no change,0.05,0.38,inactive
AGPAT1,no change,no change,0.6,-0.14,inactive
KRI1,no change,no change,0.78,-0.64,inactive
DSC3,no change,no change,-0.7,1.04,inactive
CALHM4,no change,no change,0.54,0.45,inactive
DNAJC14,no change,no change,0.26,1.35,inactive
SRP72,no change,no change,-2.62,-0.31,inactive
NUCB2,no change,no change,0.97,-0.78,inactive
BDKRB1,no change,no change,0.78,-0.32,inactive
PROKR2,no change,no change,-0.77,-0.86,inactive
ZNF551,no change,no change,-1.53,-0.08,inactive
EYA4,no change,no change,-0.6,0.9,inactive
CDC20B,no change,no change,0.81,0.26,inactive
DNAJC5,no change,no change,1.85,1.25,inactive
HSD17B4,no change,no change,0.84,-0.82,inactive
DAB1,no change,no change,0,-0.14,inactive
EHF,no change,no change,1.06,0.41,inactive
HSPD1,no change,no change,1.63,-0.18,inactive
SIRPD,no change,no change,0.77,-0.52,inactive
OR5B12,no change,no change,-0.03,0.88,inactive
XPO1,no change,no change,-2.65,-0.42,inactive
RBAKDN,no change,no change,0.32,0.38,inactive
ZNF772,no change,no change,-0.87,-0.2,inactive
PSD2,no change,no change,0.94,-0.14,inactive
PHF19,no change,no change,-1.51,-0.34,inactive
ASB16,no change,no change,-1.52,2.52,inactive
VCP,no change,no change,-2.87,3.08,inactive
SCYL3,no change,no change,0.34,-1.03,inactive
SERPINF1,no change,no change,0.66,0.9,inactive
OR52K1,no change,no change,-0.14,-0.2,inactive
SLC20A1,no change,no change,0.6,-0.26,inactive
LINGO2,no change,no change,0.95,-0.2,inactive
ZNF518B,no change,no change,0.2,0.5,inactive
CAPN12,no change,CA2 (caspase activation),-1.63,5.43,active
CRCP,no change,no change,0.78,0.22,inactive
SKIC2,no change,CA2 (caspase activation),-2.46,5.54,active
TMEM245,no change,no change,0.76,-0.38,inactive
ANK3,no change,no change,0.26,-0.7,inactive
HOXA11,no change,no change,-0.57,0.54,inactive
GJA4,no change,no change,0.07,2.44,inactive
IFT22,no change,no change,-1.12,-0.76,inactive

5 consecutive records from above:
gene knocked down,viability hit class,caspase hit class,viability robust z-score,caspase robust z-score,activity call
DEFB132,no change,no change,-0.94,-1.69,inactive
DNAH2,no change,no change,1.04,-0.48,inactive
PPP1R27,no change,no change,0.66,-0.35,inactive
TIMMDC1,no change,no change,-0.49,0.06,inactive
DKK4,no change,no change,1.08,-1.19,inactive
